Each structure is given as a SMILES string. Some of the results follow. Further columns of the screen follow, without active or inactive calls.

The experiment in a line: PubChem AID 1586. Conditions: yeast two-hybrid polyglutamine protein interaction, reporter readout; measured here: averaged growth delta OD.
The compound `Nc1nc(=S)c2[nH]cnc2[nH]1` returned a signal change (36 h minus 0 h) of 0.0752.
In turn, `NS(=O)(=O)c1cc2c(cc1Cl)NC=NS2(=O)=O` had a signal change (36 h minus 0 h) of 0.259.
The same measure for `C[N+](C)(C)CCCCCC[N+](C)(C)C`: 0.297.
With `O=C(O)CCC(=O)c1ccc(-c2ccccc2)cc1`, the signal change (36 h minus 0 h) amounted to 0.0521.
As for `COc1ccc2cc3[n+](cc2c1OC)CCc1cc2c(cc1-3)OCO2`, the figure is 0.0412; as for `CN[C@H](CC(=O)O)C(=O)O`, 0.0738.
As for `CCCCC(CC)CN=C(N)NC(N)=NCCCCCCN=C(N)NC(N)=NCC(CC)CCCC` (configuration not stated), the figure is -0.0782.
On to `CC(C)(C)c1ccc(C(O)CCCN2CCC(C(O)(c3ccccc3)c3ccccc3)CC2)cc1` (configuration not stated), for which the signal change (36 h minus 0 h) came to 0.603.
For `CC(NC(=O)C(NC(=O)OCc1ccccc1)C(C)C)C(=O)NC(CC(=O)O)C(=O)OC(F)F` (configuration not stated), the signal change (36 h minus 0 h) is 0.0491.
On to `CC(C)[N+]1(C)C2CC[C@@H]1CC(OC(=O)C(CO)c1ccccc1)C2` (some centres not stated), for which the signal change (36 h minus 0 h) came out at 0.16.
Consider `COc1ccc(C(=O)c2ccccc2)c(O)c1`, for which the signal change (36 h minus 0 h) is 0.0386.
Regarding `COc1ccc(-c2coc3cc(O)cc(O)c3c2=O)cc1`, the signal change (36 h minus 0 h) came out at 0.358.
Compound `CON` had a signal change (36 h minus 0 h) of 0.0657.
On to `OCC(S)CS` (configuration not stated), for which the signal change (36 h minus 0 h) worked out at 0.201.
As for `CCC1(C)CC(=O)NC1=O` (configuration not stated), the figure is 0.172; as for `NCC1CCC(N)C(OC2C(N)CC(N)C(OC3OC(CO)C(O)C(N)C3O)C2O)O1` (configuration not stated), 0.534; as for `CC(=O)OCC(COC(C)=O)OC(C)=O`, 0.0523.
The same measure for `NS(=O)(=O)c1cc2c(cc1Cl)NC(CSCc1ccccc1)=NS2(=O)=O`: 0.138.
Turning to `CC(=O)N[C@@H](CCC(=O)O)C(=O)O`, the signal change (36 h minus 0 h) is 0.178.
The same measure for `CCOC(N)=O`: 0.164; for `CCOC(=O)N1CCC(=C2c3ccc(Cl)cc3CCc3cccnc32)CC1`: 0.119.
The same measure for `CCC(=O)OC1CCC2C3CCc4cc(O)ccc4C3CCC12C` (configuration not stated): 0.105.

Values taken from PubChem BioAssay.
